In patent publication US20180339059A1 (DINGFU BIOTARGET, published 2018):
No constants are given. Whether binding was seen depends on the method and setting. Some binding calls cover weakened binding; strength is not graded here. Blank lines part the entries; values can stand above or below the binder they belong to.

Protein sequences, listed by entry. Tags and fused reporters are not part of them. Residues count along the entry.
UniProt P43489, residues 29-277: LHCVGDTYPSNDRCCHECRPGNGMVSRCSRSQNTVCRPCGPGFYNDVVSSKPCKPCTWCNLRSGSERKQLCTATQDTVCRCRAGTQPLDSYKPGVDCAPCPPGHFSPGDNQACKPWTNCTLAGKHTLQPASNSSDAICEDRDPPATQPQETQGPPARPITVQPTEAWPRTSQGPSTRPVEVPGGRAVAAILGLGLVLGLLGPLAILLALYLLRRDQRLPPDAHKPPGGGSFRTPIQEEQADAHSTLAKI

Experiments:
[1] = biological target: hOX40-EGFP on HEK293 cells (human) (UniProt P43489); assay: flow cytometry on HEK293 cells expressing hOX40-EGFP
[2] = biological target: hOX40-EGFP on HEK293 cells (human) (UniProt P43489); assay: flow cytometry on HEK293 cells expressing hOX40-EGFP, anti-hIg-PE
[3] = biological target: hOX40-EGFP on HEK293 cells (human) (UniProt P43489); assay: flow cytometry on hOX40-EGFP HEK293 cells, 2 µg scFv, anti-hIg-PE

binding [1]: binds
binding [2]: binds
B1: O19 mAb (antibody, IgG4, V domains shown)
VH: QVQLVESEGGLVQPGGSLRLSCAASRFTFSNYWMSWVRQAPGKGLEWVANIKQDGSEKYYMDSVKGRFTISRDNAKNSLFLQMNTLRAEDTAMYYCTRVSFGVPTYDDFWRSYATPAWYFDFWGRGTLVTVSS
VL: QSALIQPASVSGSPGQSITISCTGISSDDGYYKYVSWYQQYPGKAPKLMIYDVSKRPSGISFRFSGSKSGNTASLTISGLQAEDEADYYCSSYTSNMTPYVFGTGTKVTVL
notes: IgG4, lambda; expressed in HEK293; not shown: human immunoglobulin gamma4 (IgG4) constant region, P01861; human immunoglobulin lambda light chain constant region, A0M8Q6

binding [3]: binds
B2: O19 scFv (scFv, not shown: a dimerising Fc or GST)
scFv: QVQLVESEGGLVQPGGSLRLSCAASRFTFSNYWMSWVRQAPGKGLEWVANIKQDGSEKYYMDSVKGRFTISRDNAKNSLFLQMNTLRAEDTAMYYCTRVSFGVPTYDDFWRSYATPAWYFDFWGRGTLVTVSSGGGGSGGGGSGGGGSQSALIQPASVSGSPGQSITISCTGISSDDGYYKYVSWYQQYPGKAPKLMIYDVSKRPSGISFRFSGSKSGNTASLTISGLQAEDEADYYCSSYTSNMTPYVFGTGTKVTVL
